Reference: the supplement of paper PMC8728848
This is one part of the list.

Columns and labels:
Experiment in all cases: glycan array binding signal (z-score within array); higher = stronger binding
Settings in all cases: glycan notation: IUPAC condensed, linker removed
[1] = molecular target: Man(a1-2)Man(a1-3)[Man(a1-6)]Man(a1-6)[Man(a1-2)Man(a1-3)]Man(b1-4)GlcNAc(b1-4)GlcNAc
In short: (§1)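 The binding signal is a Z-score computed within each array and averaged over linkers. Arrays of the same protein sequence at different concentrations or buffers were also averaged together. Data originate from 3228 arrays in the Consortium for Functional Glycomics database, kept only where the protein sequence was available.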

[2] = molecular target: Man(a1-2)Man(a1-6)[Man(a1-3)]Man(a1-6)[Man(a1-2)Man(a1-2)Man(a1-3)]Man
In short: as §1

[3] = molecular target: Man(a1-2)Man(a1-6)[Man(a1-3)]Man(a1-6)[Man(a1-2)Man(a1-2)Man(a1-3)]Man(b1-4)GlcNAc(b1-4)GlcNAc
In short: as §1

Man(a1-3)[Man(a1-6)]Man = molecular target: Man(a1-3)[Man(a1-6)]Man
In short: as §1

[4] = molecular target: Man(a1-3)[Man(a1-6)]Man(a1-6)[Man(a1-2)Man(a1-3)]Man(b1-4)GlcNAc(b1-4)GlcNAc
In short: as §1

[5] = molecular target: Man(a1-3)[Man(a1-6)]Man(a1-6)[Man(a1-3)]Man
In short: as §1

[6] = molecular target: Man(a1-3)[Man(a1-6)]Man(a1-6)[Man(a1-3)]Man(b1-4)GlcNAc(b1-4)GlcNAc
In short: as §1

[7] = molecular target: Man(a1-3)[Man(a1-6)]Man(b1-4)GlcNAc(b1-4)GlcNAc
In short: as §1

Man(a1-6)Man = molecular target: Man(a1-6)Man
In short: as §1

Man(b1-4)GlcNAc = molecular target: Man(b1-4)GlcNAc
In short: as §1

Neu5Ac(a2-3)Gal = molecular target: Neu5Ac(a2-3)Gal
In short: as §1

[8] = molecular target: Neu5Ac(a2-3)Gal(b1-3)GalNAc
In short: as §1

[9] = molecular target: Neu5Ac(a2-3)Gal(b1-3)GalNAc(b1-3)Gal(a1-4)Gal(b1-4)Glc
In short: as §1

[10] = molecular target: Neu5Ac(a2-3)Gal(b1-3)GalNAc(b1-4)[Neu5Ac(a2-3)]Gal(b1-4)Glc
In short: as §1

[11] = molecular target: Neu5Ac(a2-3)Gal(b1-3)GalNAc(b1-4)[Neu5Ac(a2-8)Neu5Ac(a2-3)]Gal(b1-4)Glc
In short: as §1

[12] = molecular target: Neu5Ac(a2-3)Gal(b1-3)GalNAc6S
In short: as §1

[13] = molecular target: Neu5Ac(a2-3)Gal(b1-3)GlcNAc
In short: as §1

[14] = molecular target: Neu5Ac(a2-3)Gal(b1-3)GlcNAc(b1-3)Gal(b1-3)GlcNAc
In short: as §1

[15] = molecular target: Neu5Ac(a2-3)Gal(b1-3)GlcNAc(b1-3)Gal(b1-4)GlcNAc
In short: as §1

[16] = molecular target: Neu5Ac(a2-3)Gal(b1-3)GlcNAc(b1-3)GalNAc
In short: as §1

[17] = molecular target: Neu5Ac(a2-3)Gal(b1-3)GlcNAc6S
In short: as §1

[18] = molecular target: Neu5Ac(a2-3)Gal(b1-3)[Fuc(a1-4)]GlcNAc
In short: as §1

[19] = molecular target: Neu5Ac(a2-3)Gal(b1-3)[Fuc(a1-4)]GlcNAc(b1-3)Gal(b1-3)[Fuc(a1-4)]GlcNAc
In short: as §1

[20] = molecular target: Neu5Ac(a2-3)Gal(b1-3)[Fuc(a1-4)]GlcNAc(b1-3)Gal(b1-4)[Fuc(a1-3)]GlcNAc
In short: as §1

[21] = molecular target: Neu5Ac(a2-3)Gal(b1-3)[Neu5Ac(a2-3)Gal(b1-4)]GlcNAc
In short: as §1

[22] = molecular target: Neu5Ac(a2-3)Gal(b1-3)[Neu5Ac(a2-6)]GalNAc
In short: as §1

Neu5Ac(a2-3)Gal(b1-4)Glc = molecular target: Neu5Ac(a2-3)Gal(b1-4)Glc
In short: as §1

[23] = molecular target: Neu5Ac(a2-3)Gal(b1-4)GlcNAc
In short: as §1

[24] = molecular target: Neu5Ac(a2-3)Gal(b1-4)GlcNAc(b1-2)Man(a1-3)[GlcNAc(b1-2)Man(b1-4)GlcNAc(b1-2)Man(a1-6)]Man(b1-4)GlcNAc(b1-4)GlcNAc
In short: as §1

[25] = molecular target: Neu5Ac(a2-3)Gal(b1-4)GlcNAc(b1-2)Man(a1-3)[Neu5Ac(a2-6)Gal(b1-4)GlcNAc(b1-2)Man(a1-6)]Man(b1-4)GlcNAc(b1-4)GlcNAc
In short: as §1

[26] = molecular target: Neu5Ac(a2-3)Gal(b1-4)GlcNAc(b1-3)Gal
In short: as §1

[27] = molecular target: Neu5Ac(a2-3)Gal(b1-4)GlcNAc(b1-3)Gal(b1-3)GlcNAc
In short: as §1

[28] = molecular target: Neu5Ac(a2-3)Gal(b1-4)GlcNAc(b1-3)Gal(b1-4)GlcNAc
In short: as §1

[29] = molecular target: Neu5Ac(a2-3)Gal(b1-4)GlcNAc(b1-3)Gal(b1-4)GlcNAc(b1-3)Gal(b1-4)GlcNAc
In short: as §1

[30] = molecular target: Neu5Ac(a2-3)Gal(b1-4)GlcNAc(b1-3)Gal(b1-4)[Fuc(a1-3)]GlcNAc
In short: as §1

[31] = molecular target: Neu5Ac(a2-3)Gal(b1-4)GlcNAc(b1-3)GalNAc
In short: as §1

[32] = molecular target: Neu5Ac(a2-3)Gal(b1-4)GlcNAc(b1-6)[Gal(b1-3)]GalNAc
In short: as §1

[33] = molecular target: Neu5Ac(a2-3)Gal(b1-4)GlcNAc(b1-6)[Neu5Ac(a2-3)Gal(b1-3)]GalNAc
In short: as §1

[34] = molecular target: Neu5Ac(a2-3)Gal(b1-4)GlcNAc6S
In short: as §1

[35] = molecular target: Neu5Ac(a2-3)Gal(b1-4)[Fuc(a1-3)]GlcNAc
In short: as §1

[36] = molecular target: Neu5Ac(a2-3)Gal(b1-4)[Fuc(a1-3)]GlcNAc(b1-3)Gal
In short: as §1

[37] = molecular target: Neu5Ac(a2-3)Gal(b1-4)[Fuc(a1-3)]GlcNAc(b1-3)Gal(b1-4)GlcNAc
In short: as §1

[38] = molecular target: Neu5Ac(a2-3)Gal(b1-4)[Fuc(a1-3)]GlcNAc(b1-3)Gal(b1-4)[Fuc(a1-3)]GlcNAc(b1-3)Gal(b1-4)[Fuc(a1-3)]GlcNAc
In short: as §1

[39] = molecular target: Neu5Ac(a2-3)Gal(b1-4)[Fuc(a1-3)]GlcNAc(b1-3)GalNAc
In short: as §1

[40] = molecular target: Neu5Ac(a2-3)Gal(b1-4)[Fuc(a1-3)]GlcNAc(b1-6)[Gal(b1-3)]GalNAc
In short: as §1

[41] = molecular target: Neu5Ac(a2-3)Gal(b1-4)[Fuc(a1-3)]GlcNAc6S
In short: as §1

[42] = molecular target: Neu5Ac(a2-3)Gal6S(b1-4)GlcNAc
In short: as §1

[43] = molecular target: Neu5Ac(a2-3)Gal6S(b1-4)[Fuc(a1-3)]GlcNAc
In short: as §1

Neu5Ac(a2-3)GalNAc = molecular target: Neu5Ac(a2-3)GalNAc
In short: as §1

[44] = molecular target: Neu5Ac(a2-3)GalNAc(b1-4)GlcNAc
In short: as §1

B1: Eosinophil-derived neurotoxin (EDN) (Homo sapiens), P10153 (protein)
chain: MVPKLFTSQICLLLLLGLLAVEGSLHVKPPQFTWAQWFETQHINMTSQQCTNAMQVINNYQRRCKNQNTFLLTTFANVVNVCGNPNMTCPSNKTRKNCHHSGSQVPLIHCNLTTPSPQNISNCRYAQTPANMFYIVACDNRDQRRDPPQYPVVPVHLDRII
For B1, the “glycan array binding signal (z-score)” value [1] was 0.104, the “glycan array binding signal (z-score)” value [2] was 0.183 and the “glycan array binding signal (z-score)” value [3] was 0.515. The “glycan array binding signal (z-score)” value (Man(a1-3)[Man(a1-6)]Man) was -0.449, the “glycan array binding signal (z-score)” value [4] was -0.496 and the “glycan array binding signal (z-score)” value [5] was -0.419. The “glycan array binding signal (z-score)” value [6] was -0.281, the “glycan array binding signal (z-score)” value [7] was -0.552 and the “glycan array binding signal (z-score)” value (Man(a1-6)Man) was -0.56. The “glycan array binding signal (z-score)” value (Man(b1-4)GlcNAc) was 0.116, the “glycan array binding signal (z-score)” value (Neu5Ac(a2-3)Gal) was 0.063 and the “glycan array binding signal (z-score)” value [8] was 0.372. The “glycan array binding signal (z-score)” value [9] was -0.236, the “glycan array binding signal (z-score)” value [10] was 0.077 and the “glycan array binding signal (z-score)” value [11] was 0. The “glycan array binding signal (z-score)” value [12] was 0.027, the “glycan array binding signal (z-score)” value [13] was -0.205 and the “glycan array binding signal (z-score)” value [14] was -0.703. The “glycan array binding signal (z-score)” value [15] was 0.141, the “glycan array binding signal (z-score)” value [16] was -0.041 and the “glycan array binding signal (z-score)” value [17] was -0.082. For the same binder, the “glycan array binding signal (z-score)” value [18] was 0.855, the “glycan array binding signal (z-score)” value [19] was -0.07 and the “glycan array binding signal (z-score)” value [20] was 0.422. The “glycan array binding signal (z-score)” value [21] was 0.04, the “glycan array binding signal (z-score)” value [22] was 0.143 and the “glycan array binding signal (z-score)” value (Neu5Ac(a2-3)Gal(b1-4)Glc) was -0.14. The “glycan array binding signal (z-score)” value [23] was 0.614, the “glycan array binding signal (z-score)” value [24] was -0.078 and the “glycan array binding signal (z-score)” value [25] was 1.08. The “glycan array binding signal (z-score)” value [26] was -0.711, the “glycan array binding signal (z-score)” value [27] was 0.087 and the “glycan array binding signal (z-score)” value [28] was -0.327. For the same binder, the “glycan array binding signal (z-score)” value [29] was 0.122, the “glycan array binding signal (z-score)” value [30] was -0.259 and the “glycan array binding signal (z-score)” value [31] was 0.703. For the same binder, the “glycan array binding signal (z-score)” value [32] was 1.16, the “glycan array binding signal (z-score)” value [33] was -0.238 and the “glycan array binding signal (z-score)” value [34] was -0.089. The “glycan array binding signal (z-score)” value [35] was -0.232, the “glycan array binding signal (z-score)” value [36] was -0.389 and the “glycan array binding signal (z-score)” value [37] was 0.331. For the same binder, the “glycan array binding signal (z-score)” value [38] was 0.454, the “glycan array binding signal (z-score)” value [39] was 0.955 and the “glycan array binding signal (z-score)” value [40] was 0.427. The “glycan array binding signal (z-score)” value [41] was 0.105, the “glycan array binding signal (z-score)” value [42] was -1.26 and the “glycan array binding signal (z-score)” value [43] was -0.455. For the same binder, the “glycan array binding signal (z-score)” value (Neu5Ac(a2-3)GalNAc) was 0.007 and the “glycan array binding signal (z-score)” value [44] was 0.074.
